PubChem BioAssay AID686937 – Drosophila RNAi Screening Center, 2013
In all, the deposit lists about 23,000 reagents; below is a random part of those that have a named target and a result. 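Reduced-secretion tags in replicate 1 do not always agree with the z-scores; no criterion for assigning the tags was given.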 A plus sign joins genes that one reagent is predicted to hit. Not stated in the record: the amount of reagent.

Assay: 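Genes in the fly needed for secretion of protein constitutively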 (primary screen)
Cell system: Drosophila S2 cells expressing secreted horseradish peroxidase
Reagents: long dsRNA against Drosophila genes
Timing: about 5.5 days (5 days dsRNA, then 12 h reporter induction)
Treatment: reporter expression induced after 5 days of dsRNA, read 12 h later; inducer not stated
Measured: 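Chemiluminescent measurement of peroxidase in the medium 12 h after reporter induction, following 5 days of dsRNA, given as a z-score per plate; higher means more secretion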
Scale: z-score: higher = more reporter secreted into medium

gene	dsRNA	z-score, replicate 1	z-score, replicate 2	z-score, replicate 3	z-score, replicate 4	phenotype, replicate 1
CG7906	DRSC10928	0.23	0.32			
Ugt317A1	DRSC04470	-0.14	0.19			
CG5181	DRSC02825	0.42	0.41			
CG34175	DRSC00424	0.05	0.43			
Pus7	DRSC10703	0.03	0.23			
CG32026	DRSC08950	0.01	0.29			
Ptp10D	DRSC20272	0.26	0.27			
His3.3B	DRSC17773	0.38	0.79			
His3.3B	DRSC18673	0.2	-0.22			
VGAT	DRSC07160	0.28	-0.03			
CG11815	DRSC08209	0.55	0.37			
mRpL20	DRSC09828	-0.07	0.14			
CG8854	DRSC07288	-0.15	0.13			
CG45067	DRSC08414	0.24	0.37			
CG7369	DRSC11822	-0.44	0.04	0.26	-0.25	
cl	DRSC02118	0.23	0.25			
CG7497	DRSC10857	0.17	0.58			
CG8321	DRSC07148	0.28	0.33			
uex	DRSC20784	0.09	0			
uex	DRSC20786	-0.21	0.07			
CG17121	DRSC15176	0.31	0.15			
Sfxn2	DRSC10718	0.34	0.4			
CG15831 (retired record)	DRSC20816	0.35	0.07			
Orc6	DRSC07497	0.11	0.31			
CG14810	DRSC17693	-1.38	-0.22			
CG14810	DRSC17961	0.19	0.3			
CG11983	DRSC14458	0.38	0.78			
alphaTub84D	DRSC12623	-1.21	-2.57			
TSG101	DRSC11098	-1.15	-0.8			
RhoGAP19D	DRSC20499	-0.15	-0.37			
RhoGAP19D	DRSC20500	0.6	0.34			
Snap24	DRSC16864	0.3	0.52			
mod(mdg4) + pre-mod(mdg4)-Z + pre-mod(mdg4)-T	DRSC13477	-0.11	0.08			
mod(mdg4) + pre-mod(mdg4)-Z + pre-mod(mdg4)-T	DRSC17001	0.24	0.31			
TwdlC	DRSC14749	0.35	0.56			
CG6686	DRSC02979	-2.43	-0.93			reduced secretion
Lerp	DRSC14750	0.42	0.45			
Lerp	DRSC14751	0.34	0.69			
Lerp	DRSC16030	0.26	-0.02			
Lerp	DRSC16031	0.37	0.46			
CG40006	DRSC03787	0.06	0.34			
CG40006	DRSC03809	0.87	0.18			
CG40006	DRSC03814	-0.12	0			
CG40006	DRSC03817	0.25	-0.05			
CG13332	DRSC06367	-0.37	0.17			
Pi3K59F	DRSC04640	0.14	0.25			
shg	DRSC04714	0.27	0.51			
elm	DRSC12309	-0.06	0			
Tango2	DRSC19394	-2.92	-0.92			reduced secretion
Tango2	DRSC21526	0.29	-0.54			
vir-1	DRSC02501	-0.32	-0.17			
vir-1	DRSC02863	-0.34	0.12			
Rheb	DRSC12148	-3.71	-4.16			reduced secretion
CG33791 + CG12105 + CG18170	DRSC08387	0.45	0.34			
CG30350	DRSC07690	0.22	0.31			
CG17287	DRSC06659	0.62	0.39			
Rpp25	DRSC05002	0.15	0.41			
Eig71Ei	DRSC11156	0.31	0.27			
mRpS16	DRSC07152	-0.01	-0.28			
CG10132	DRSC02013	0.28	0.27			
CG1909	DRSC17150	-0.28	0.06			
Toll-9	DRSC11776	0.48	0.43			
mtDNA-helicase	DRSC02912	0.39	0.29			
RpL4	DRSC16833	-4.47	-5.19			reduced secretion
CG15905	DRSC06591	0.53	0.22			
mRRF2	DRSC16143	0.45	0.6			
mRpL10	DRSC00312	0.4	0.08			
CG4594	DRSC02762	0.06	0.3			
CG12617	DRSC02176	0.32	-0.25			
Ir7e	DRSC18011	-1.04	0.13			
CG13144	DRSC02241	0.21	0.15			
Cyp301a1	DRSC07365	0.5	0.42			
CG14435	DRSC17928	-0.02	0.03			
tef	DRSC07301	-0.09	0.3			
tef	DRSC22041	0.17	-0.16			
Sqor	DRSC08453	0.68	0.56			
ReepB	DRSC07150	0.52	0.34			
CG43101	DRSC05520	0.11	0.1			
CG12909	DRSC06224	0.02	-0.1			
CG34025	DRSC08014	0	0.41			
CG12290	DRSC14497	0.25	0.49			
Pal2	DRSC04507	0.29	0.3			

9 of these entries in another layout:
{"gene":"CG15831 (retired record)","dsRNA":"DRSC20816","z-score, replicate 1":0.35,"z-score, replicate 2":0.07}
{"gene":"Orc6","dsRNA":"DRSC07497","z-score, replicate 1":0.11,"z-score, replicate 2":0.31}
{"gene":"CG14810","dsRNA":"DRSC17693","z-score, replicate 1":-1.38,"z-score, replicate 2":-0.22}
{"gene":"CG14810","dsRNA":"DRSC17961","z-score, replicate 1":0.19,"z-score, replicate 2":0.3}
{"gene":"CG11983","dsRNA":"DRSC14458","z-score, replicate 1":0.38,"z-score, replicate 2":0.78}
{"gene":"alphaTub84D","dsRNA":"DRSC12623","z-score, replicate 1":-1.21,"z-score, replicate 2":-2.57}
{"gene":"TSG101","dsRNA":"DRSC11098","z-score, replicate 1":-1.15,"z-score, replicate 2":-0.8}
{"gene":"RhoGAP19D","dsRNA":"DRSC20499","z-score, replicate 1":-0.15,"z-score, replicate 2":-0.37}
{"gene":"RhoGAP19D","dsRNA":"DRSC20500","z-score, replicate 1":0.6,"z-score, replicate 2":0.34}
